Record: PubChem BioAssay AID1259308 (NCATS, 2017)
Here is one part, drawn at random, of about 59,000 reagents tested. In the full data, about 1,510 (2.6%) are marked active. 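Calls use total luciferase alone and ignore viability, so some active siRNAs may act by altering cell number.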 The numbers tell different reagents against one gene apart. Not all columns of the deposit are shown. Reagent sequences are not shown.

- Aim: 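Candidate targets for better recombinant protein yield in mammalian cells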 (primary screen)
- System: human HEK293 embryonic kidney cells stably expressing firefly luciferase (HEK-CMV-Luc2-Hygro)
- Reagent: single siRNA against human genes, 0.8 pmol siRNA per well
- Time to read-out: 72 h
- Measurement: 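Reporter luminescence and viable-cell signal on separate replicate plates, given as percent of non-targeting control and median/MAD z-scores, plus per-cell luciferase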
- Reading the numbers: total luciferase, z-score and total luciferase, % of control: higher = more reporter protein produced
- Hit rule: 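An siRNA counts as active if its total luciferase robust z-score exceeds 3; genes with two or more such siRNAs out of three were retested with fresh siRNAs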
- Calls: active = raised luciferase; inactive = no rise

Depletion of FBXL20 (F-box and leucine rich repeat protein 20) #1 gave: total luciferase, z-score 1.21; total luciferase, % of control 106; inactive.
Silencing of FBXL20 (F-box and leucine rich repeat protein 20) #2 gave: total luciferase, z-score 2.02; total luciferase, % of control 122; inactive.
Silencing of FBXL20 (F-box and leucine rich repeat protein 20) #3 resulted in: total luciferase, z-score -0.134; total luciferase, % of control 79.2; inactive.
After knock-down of SULF1 (sulfatase 1) #1 the results were total luciferase, z-score -1.37; total luciferase, % of control 54.7; inactive.
With knock-down of SULF1 (sulfatase 1) #2 the results were total luciferase, z-score -0.105; total luciferase, % of control 79.8; inactive.
SULF1 (sulfatase 1) #3 gave total luciferase, z-score -0.785; total luciferase, % of control 66.3; inactive.
Against VAMP5 (vesicle associated membrane protein 5) #1, the entry reads total luciferase, z-score -0.551; total luciferase, % of control 70.9; inactive.
VAMP5 (vesicle associated membrane protein 5) #2 showed total luciferase, z-score 0.12; total luciferase, % of control 84.3; inactive.
With knock-down of VAMP5 (vesicle associated membrane protein 5) #3, the screen gave total luciferase, z-score 1.67; total luciferase, % of control 115; inactive.
After knock-down of DEFB132 (defensin beta 132) #1 the results were total luciferase, z-score 0.15; total luciferase, % of control 84.9; inactive.
After knock-down of DEFB132 (defensin beta 132) #2 the results were total luciferase, z-score -0.678; total luciferase, % of control 68.4; inactive.
DEFB132 (defensin beta 132) #3 gave total luciferase, z-score -0.82; total luciferase, % of control 65.6; inactive.
Knock-down of DMRT3 (doublesex and mab-3 related transcription factor 3) #1 resulted in: total luciferase, z-score 0.381; total luciferase, % of control 89.5; inactive.
Knock-down of DMRT3 (doublesex and mab-3 related transcription factor 3) #2 resulted in: total luciferase, z-score 0.0291; total luciferase, % of control 82.5; inactive.
After knock-down of DMRT3 (doublesex and mab-3 related transcription factor 3) #3, the screen gave total luciferase, z-score -2.33; total luciferase, % of control 35.6; inactive.
Silencing of LOC401021 #1 resulted in: total luciferase, z-score -0.248; total luciferase, % of control 76.9; inactive.
LOC401021 #2 gave total luciferase, z-score 0.298; total luciferase, % of control 87.8; inactive.
For LOC401021 #3, the values are total luciferase, z-score -1.99; total luciferase, % of control 42.4; inactive.
For TLE5 (TLE family member 5, transcriptional modulator) #1 the deposit lists total luciferase, z-score -0.43; total luciferase, % of control 73.3; inactive.
TLE5 (TLE family member 5, transcriptional modulator) #2 scored total luciferase, z-score 1.09; total luciferase, % of control 103; inactive.
TLE5 (TLE family member 5, transcriptional modulator) #3 gave total luciferase, z-score 1.61; total luciferase, % of control 114; inactive.
Depletion of FAM91A3P (family with sequence similarity 91 member A3, pseudogene) #1 came out at: total luciferase, z-score -0.498; total luciferase, % of control 72; inactive.
Depletion of FAM91A3P (family with sequence similarity 91 member A3, pseudogene) #2 came out at: total luciferase, z-score -0.445; total luciferase, % of control 73; inactive.
Against FAM91A3P (family with sequence similarity 91 member A3, pseudogene) #3, the values are total luciferase, z-score -0.271; total luciferase, % of control 76.5; inactive.
ACBD6 (acyl-CoA binding domain containing 6) #1 scored total luciferase, z-score -1.18; total luciferase, % of control 58.3; inactive.
With knock-down of ACBD6 (acyl-CoA binding domain containing 6) #2 the results were total luciferase, z-score 0.407; total luciferase, % of control 90; inactive.
Depletion of ACBD6 (acyl-CoA binding domain containing 6) #3 came out at: total luciferase, z-score -0.755; total luciferase, % of control 66.9; inactive.
After knock-down of EPG5 (ectopic P-granules 5 autophagy tethering factor) #1, the record shows total luciferase, z-score 0.398; total luciferase, % of control 89.8; inactive.
Depletion of EPG5 (ectopic P-granules 5 autophagy tethering factor) #2 came out at: total luciferase, z-score 0.042; total luciferase, % of control 82.7; inactive.
EPG5 (ectopic P-granules 5 autophagy tethering factor) #3 gave total luciferase, z-score 1.29; total luciferase, % of control 108; inactive.
TMEM183BP (transmembrane protein 183B, pseudogene) #1 showed total luciferase, z-score -0.321; total luciferase, % of control 75.5; inactive.
After knock-down of TMEM183BP (transmembrane protein 183B, pseudogene) #2 the results were total luciferase, z-score 0.951; total luciferase, % of control 101; inactive.
TMEM183BP (transmembrane protein 183B, pseudogene) #3 scored total luciferase, z-score 0.321; total luciferase, % of control 88.3; inactive.
Depletion of GUCA1B (guanylate cyclase activator 1B) #1 resulted in: total luciferase, z-score -0.658; total luciferase, % of control 68.8; inactive.
For GUCA1B (guanylate cyclase activator 1B) #2, the entry reads total luciferase, z-score -0.0719; total luciferase, % of control 80.5; inactive.
GUCA1B (guanylate cyclase activator 1B) #3 showed total luciferase, z-score -0.876; total luciferase, % of control 64.5; inactive.
With knock-down of DMD (dystrophin) #1, the record shows total luciferase, z-score 0.975; total luciferase, % of control 101; inactive.
DMD (dystrophin) #2 gave total luciferase, z-score -0.377; total luciferase, % of control 74.4; inactive.
With knock-down of DMD (dystrophin) #3, the screen gave total luciferase, z-score 0.001; total luciferase, % of control 81.9; inactive.
Silencing of H3-5 (H3.5 histone) #1 gave: total luciferase, z-score 0.215; total luciferase, % of control 86.2; inactive.
With knock-down of H3-5 (H3.5 histone) #2, the record shows total luciferase, z-score 1.18; total luciferase, % of control 105; inactive.
H3-5 (H3.5 histone) #3 gave total luciferase, z-score -0.823; total luciferase, % of control 65.5; inactive.

Already shown: 6 of the entries above.
ACBD6 (acyl-CoA binding domain containing 6) #2: total luciferase, z-score = 0.407; total luciferase, % of control = 90; Call = inactive
ACBD6 (acyl-CoA binding domain containing 6) #3: total luciferase, z-score = -0.755; total luciferase, % of control = 66.9; Call = inactive
EPG5 (ectopic P-granules 5 autophagy tethering factor) #1: total luciferase, z-score = 0.398; total luciferase, % of control = 89.8; Call = inactive
EPG5 (ectopic P-granules 5 autophagy tethering factor) #2: total luciferase, z-score = 0.042; total luciferase, % of control = 82.7; Call = inactive
EPG5 (ectopic P-granules 5 autophagy tethering factor) #3: total luciferase, z-score = 1.29; total luciferase, % of control = 108; Call = inactive
TMEM183BP (transmembrane protein 183B, pseudogene) #1: total luciferase, z-score = -0.321; total luciferase, % of control = 75.5; Call = inactive
